Results on 31 sequences are retold here after paper PMC8384837.

Some of the results follow. At the low end of the ranking the order means little. Some results are limits rather than exact numbers.

The test deals with T1, PUM1 PUF domain R2-VFQ R3-THE R4-TFR N899V + Y900F + C935T + R936H + Q939E + N971T + H972F + Q975R (UniProt Q14671).
T1 sequence: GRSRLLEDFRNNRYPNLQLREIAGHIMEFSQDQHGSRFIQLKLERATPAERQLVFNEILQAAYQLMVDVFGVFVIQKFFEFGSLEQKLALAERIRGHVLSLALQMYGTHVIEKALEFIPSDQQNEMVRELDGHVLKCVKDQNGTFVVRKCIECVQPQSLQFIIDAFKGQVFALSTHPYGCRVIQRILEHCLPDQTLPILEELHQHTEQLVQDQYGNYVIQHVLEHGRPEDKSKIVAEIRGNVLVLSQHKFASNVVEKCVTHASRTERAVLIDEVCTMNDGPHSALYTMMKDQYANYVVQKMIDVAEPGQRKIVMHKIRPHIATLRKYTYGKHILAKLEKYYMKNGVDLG
As to conditions: yeast three-hybrid, YBZ-1, SC-Leu-His + 0.5 mM 3-AT, 4 days.
As to “GGCUAGAACUAGUGGAUCCCCCGGCGCCCGGCGGCUCGAGCCCGGGUAAGAUUAAUACGUCUGCAUGCCGCCGGGCGCCAUGCCUGCAGGUCGACUCUAGAAAACAUG”, the binding signal (log2 enrichment (interaction score)) is -5.76.

In the case of “GGCUAGAACUAGUGGAUCCCCCGGCGCCCGGCGGCUCGAGCCCGGGUAAGAAGCAUAGGUCUGCAUGCCGCCGGGCGCCAUGCCUGCAGGUCGACUCUAGAAAACAUG”, the binding signal (log2 enrichment (interaction score)) is -5.33. Regarding “GGCUAGAACUAGUGGAUCCCCCGGCGCCCGGCGGCUCGAGCCCGGGUAAGAUCAAGUAGUCUGCAUGCCGCCGGGCGCCAUGCCUGCAGGUCGACUCUAGAAAACAUG”, the binding signal (log2 enrichment (interaction score)) is -6.74.

As to “GGCUAGAACUAGUGGAUCCCCCGGCGCCCGGCGGCUCGAGCCCGGGUAAGCUUGAGUAGUCUGCAUGCCGCCGGGCGCCAUGCCUGCAGGUCGACUCUAGAAAACAUG”, the binding signal (log2 enrichment (interaction score)) is less than -5.91. With “GGCUAGAACUAGUGGAUCCCCCGGCGCCCGGCGGCUCGAGCCCGGGUAAGUUUAUAUCGUCUGCAUGCCGCCGGGCGCCAUGCCUGCAGGUCGACUCUAGAAAACAUG”, the binding signal (log2 enrichment (interaction score)) was -5.93. For “GGCUAGAACUAGUGGAUCCCCCGGCGCCCGGCGGCUCGAGCCCGGGUAAGUGUCCGUCGUCUGCAUGCCGCCGGGCGCCAUGCCUGCAGGUCGACUCUAGAAAACAUG” the value was -5.25. Take “GGCUAGAACUAGUGGAUCCCCCGGCGCCCGGCGGCUCGAGCCCGGGUAAGGUGAAAGAGUCUGCAUGCCGCCGGGCGCCAUGCCUGCAGGUCGACUCUAGAAAACAUG”: the binding signal (log2 enrichment (interaction score)) is -5.8. Regarding “GGCUAGAACUAGUGGAUCCCCCGGCGCCCGGCGGCUCGAGCCCGGGUAAGGUUCCGAAGUCUGCAUGCCGCCGGGCGCCAUGCCUGCAGGUCGACUCUAGAAAACAUG”, the binding signal (log2 enrichment (interaction score)) is -4.72.

As to “GGCUAGAACUAGUGGAUCCCCCGGCGCCCGGCGGCUCGAGCCCGGGUAAGAUUAAAUAGUCUGCAUGCCGCCGGGCGCCAUGCCUGCAGGUCGACUCUAGAAAACAUG”, the binding signal (log2 enrichment (interaction score)) is less than -5.7. For “GGCUAGAACUAGUGGAUCCCCCGGCGCCCGGCGGCUCGAGCCCGGGUAAGUUUACGCCGUCUGCAUGCCGCCGGGCGCCAUGCCUGCAGGUCGACUCUAGAAAACAUG” the value was -5.12; for “GGCUAGAACUAGUGGAUCCCCCGGCGCCCGGCGGCUCGAGCCCGGGUAAGUCUGAACGGUCUGCAUGCCGCCGGGCGCCAUGCCUGCAGGUCGACUCUAGAAAACAUG”, -5.96; for “GGCUAGAACUAGUGGAUCCCCCGGCGCCCGGCGGCUCGAGCCCGGGUAAGUUGAAGACGUCUGCAUGCCGCCGGGCGCCAUGCCUGCAGGUCGACUCUAGAAAACAUG”, -5.75. As for “GGCUAGAACUAGUGGAUCCCCCGGCGCCCGGCGGCUCGAGCCCGGGUAAGUAUAUGAGGUCUGCAUGCCGCCGGGCGCCAUGCCUGCAGGUCGACUCUAGAAAACAUG”, the binding signal (log2 enrichment (interaction score)) was -6.01.

With “GGCUAGAACUAGUGGAUCCCCCGGCGCCCGGCGGCUCGAGCCCGGGUAAGUUGAGUACGUCUGCAUGCCGCCGGGCGCCAUGCCUGCAGGUCGACUCUAGAAAACAUG”, the binding signal (log2 enrichment (interaction score)) was -6.23. “GGCUAGAACUAGUGGAUCCCCCGGCGCCCGGCGGCUCGAGCCCGGGUAAGUGGCCUGAGUCUGCAUGCCGCCGGGCGCCAUGCCUGCAGGUCGACUCUAGAAAACAUG”: the binding signal (log2 enrichment (interaction score)) is -2.66. With “GGCUAGAACUAGUGGAUCCCCCGGCGCCCGGCGGCUCGAGCCCGGGUAAGAGGAACAAGUCUGCAUGCCGCCGGGCGCCAUGCCUGCAGGUCGACUCUAGAAAACAUG” the figure was -4.7.

For “GGCUAGAACUAGUGGAUCCCCCGGCGCCCGGCGGCUCGAGCCCGGGUAAGUUGACGGCGUCUGCAUGCCGCCGGGCGCCAUGCCUGCAGGUCGACUCUAGAAAACAUG”, the binding signal (log2 enrichment (interaction score)) is -5.08. Consider “GGCUAGAACUAGUGGAUCCCCCGGCGCCCGGCGGCUCGAGCCCGGGUAAGUUGAAGGCGUCUGCAUGCCGCCGGGCGCCAUGCCUGCAGGUCGACUCUAGAAAACAUG”, for which the binding signal (log2 enrichment (interaction score)) is -5.31. As for “GGCUAGAACUAGUGGAUCCCCCGGCGCCCGGCGGCUCGAGCCCGGGUAAGUCCAAAGAGUCUGCAUGCCGCCGGGCGCCAUGCCUGCAGGUCGACUCUAGAAAACAUG”, the binding signal (log2 enrichment (interaction score)) is -5.52. With “GGCUAGAACUAGUGGAUCCCCCGGCGCCCGGCGGCUCGAGCCCGGGUAAGUUUACAGGGUCUGCAUGCCGCCGGGCGCCAUGCCUGCAGGUCGACUCUAGAAAACAUG” the figure was -5.51. With “GGCUAGAACUAGUGGAUCCCCCGGCGCCCGGCGGCUCGAGCCCGGGUAAGUGACAGAAGUCUGCAUGCCGCCGGGCGCCAUGCCUGCAGGUCGACUCUAGAAAACAUG” the figure was -5.3; with “GGCUAGAACUAGUGGAUCCCCCGGCGCCCGGCGGCUCGAGCCCGGGUAAGAGUGUCACGUCUGCAUGCCGCCGGGCGCCAUGCCUGCAGGUCGACUCUAGAAAACAUG”, -5.08. Regarding “GGCUAGAACUAGUGGAUCCCCCGGCGCCCGGCGGCUCGAGCCCGGGUAAGUUGUUUAAGUCUGCAUGCCGCCGGGCGCCAUGCCUGCAGGUCGACUCUAGAAAACAUG”, the binding signal (log2 enrichment (interaction score)) was -6.1.

For the sequence “GGCUAGAACUAGUGGAUCCCCCGGCGCCCGGCGGCUCGAGCCCGGGUAAGUCGAAAUAGUCUGCAUGCCGCCGGGCGCCAUGCCUGCAGGUCGACUCUAGAAAACAUG”, the binding signal (log2 enrichment (interaction score)) is -5.7. Regarding “GGCUAGAACUAGUGGAUCCCCCGGCGCCCGGCGGCUCGAGCCCGGGUAAGUUUACGCUGUCUGCAUGCCGCCGGGCGCCAUGCCUGCAGGUCGACUCUAGAAAACAUG”, the binding signal (log2 enrichment (interaction score)) is -6.03.

For the sequence “GGCUAGAACUAGUGGAUCCCCCGGCGCCCGGCGGCUCGAGCCCGGGUAAGUGAACGACGUCUGCAUGCCGCCGGGCGCCAUGCCUGCAGGUCGACUCUAGAAAACAUG”, the binding signal (log2 enrichment (interaction score)) is -5.02. Take “GGCUAGAACUAGUGGAUCCCCCGGCGCCCGGCGGCUCGAGCCCGGGUAAGUCGAAGGAGUCUGCAUGCCGCCGGGCGCCAUGCCUGCAGGUCGACUCUAGAAAACAUG”: the binding signal (log2 enrichment (interaction score)) is -5.13. With “GGCUAGAACUAGUGGAUCCCCCGGCGCCCGGCGGCUCGAGCCCGGGUAAGUUUACUGAGUCUGCAUGCCGCCGGGCGCCAUGCCUGCAGGUCGACUCUAGAAAACAUG”, the binding signal (log2 enrichment (interaction score)) was -5.48. As to “GGCUAGAACUAGUGGAUCCCCCGGCGCCCGGCGGCUCGAGCCCGGGUAAGUGCACAUAGUCUGCAUGCCGCCGGGCGCCAUGCCUGCAGGUCGACUCUAGAAAACAUG”, the binding signal (log2 enrichment (interaction score)) is -5.96. As for “GGCUAGAACUAGUGGAUCCCCCGGCGCCCGGCGGCUCGAGCCCGGGUAAGCAUAGGGGGUCUGCAUGCCGCCGGGCGCCAUGCCUGCAGGUCGACUCUAGAAAACAUG”, the binding signal (log2 enrichment (interaction score)) is -5.07. With “GGCUAGAACUAGUGGAUCCCCCGGCGCCCGGCGGCUCGAGCCCGGGUAAGUUAACCUCGUCUGCAUGCCGCCGGGCGCCAUGCCUGCAGGUCGACUCUAGAAAACAUG”, the binding signal (log2 enrichment (interaction score)) was -5.54.
